Data as given in PubChem BioAssay AID1259308 (NCATS, 2017).
Test: 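Genes whose loss raises luciferase production in HEK293 cells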 (primary screen). Cells: human HEK293 embryonic kidney cells stably expressing firefly luciferase (HEK-CMV-Luc2-Hygro). Reagents: single siRNA against human genes, 0.8 pmol siRNA per well. Timing: 72 h. Read-out: 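Luciferase light (ONE-Glo) measured on one replicate plate set and viability (CellTiter-Glo) on the other, scaled to a negative control siRNA, with robust z-scores and luciferase per cell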. Scale: total luciferase, z-score and total luciferase, % of control: higher = more reporter protein produced. Active means: 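An siRNA counts as active if its total luciferase robust z-score exceeds 3; genes with two or more such siRNAs out of three were retested with fresh siRNAs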. Calls: active = raised luciferase; inactive = no rise.
The deposit covers about 59,000 reagents; this is a random part of them. About 1,510 of all reagents (2.6%) were called active. 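Calls use total luciferase alone and ignore viability, so some active siRNAs may act by altering cell number.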 Entries without a mark were called inactive. The numbers tell different reagents against one gene apart. Not all columns of the deposit are shown.

target gene	siRNA no.	total luciferase, z-score	total luciferase, % of control
MYOG (myogenin)	1	1.73	116
MYOG (myogenin)	2	0.779	97.4
MYOG (myogenin)	3	-0.128	79.3
KDM4B (lysine demethylase 4B)	1	-0.482	72.3
KDM4B (lysine demethylase 4B)	2	0.59	93.6
KDM4B (lysine demethylase 4B)	3	0.278	87.4
RUFY3 (RUN and FYVE domain containing 3)	1	-0.408	73.8
RUFY3 (RUN and FYVE domain containing 3)	2	-0.679	68.4
RUFY3 (RUN and FYVE domain containing 3)	3	-0.123	79.4
IL26 (interleukin 26)	1	4.46 (active)	171
IL26 (interleukin 26)	2	0.344	88.7
IL26 (interleukin 26)	3	0.693	95.7
SLC39A9	1	0.0257	82.4
SLC39A9	2	-1.17	58.6
SLC39A9	3	0.782	97.4
OR4C15 (olfactory receptor family 4 subfamily C member 15)	1	-1.23	57.4
OR4C15 (olfactory receptor family 4 subfamily C member 15)	2	-0.0767	80.4
OR4C15 (olfactory receptor family 4 subfamily C member 15)	3	1.93	120
ERFL (ETS repressor factor like)	1	-1.39	54.3
ERFL (ETS repressor factor like)	2	0.833	98.5
ERFL (ETS repressor factor like)	3	-1.74	47.3
KLHL27 (kelch like family member 27)	1	-0.0643	80.6
KLHL27 (kelch like family member 27)	2	0.644	94.7
KLHL27 (kelch like family member 27)	3	-0.145	79
TCEANC2	1	-1.41	53.9
TCEANC2	2	0.976	101
TCEANC2	3	0.285	87.6
OR6A2 (olfactory receptor family 6 subfamily A member 2)	1	2.3	128
OR6A2 (olfactory receptor family 6 subfamily A member 2)	2	0.708	96
OR6A2 (olfactory receptor family 6 subfamily A member 2)	3	0.315	88.2
SIN3A (SIN3 transcription regulator family member A)	1	-1.02	61.6
SIN3A (SIN3 transcription regulator family member A)	2	-0.492	72.1
SIN3A (SIN3 transcription regulator family member A)	3	-1.6	50.2
TH (tyrosine hydroxylase)	1	-1.04	61.2
TH (tyrosine hydroxylase)	2	2.16	125
TH (tyrosine hydroxylase)	3	0.414	90.1
FAXDC2 (fatty acid hydroxylase domain containing 2)	1	0.198	85.8
FAXDC2 (fatty acid hydroxylase domain containing 2)	2	0.365	89.2
FAXDC2 (fatty acid hydroxylase domain containing 2)	3	2.05	123
SLBP (stem-loop histone mRNA binding protein)	1	-0.245	77
SLBP (stem-loop histone mRNA binding protein)	2	1.14	105
SLBP (stem-loop histone mRNA binding protein)	3	-0.56	70.7
RITA1 (RBPJ interacting and tubulin associated 1)	1	-0.824	65.5
RITA1 (RBPJ interacting and tubulin associated 1)	2	-0.637	69.2
RITA1 (RBPJ interacting and tubulin associated 1)	3	0.174	85.4
RCC2P7 (regulator of chromosome condensation 2 pseudogene 7)	1	2.32	128
RCC2P7 (regulator of chromosome condensation 2 pseudogene 7)	2	-0.152	78.9
RCC2P7 (regulator of chromosome condensation 2 pseudogene 7)	3	-0.481	72.3
HAUS3 (HAUS augmin like complex subunit 3)	1	1.26	107
HAUS3 (HAUS augmin like complex subunit 3)	2	-1.8	46
HAUS3 (HAUS augmin like complex subunit 3)	3	0.437	90.6
SKP2 (S-phase kinase associated protein 2)	1	1.65	115
SKP2 (S-phase kinase associated protein 2)	2	0.894	99.7
SKP2 (S-phase kinase associated protein 2)	3	1.71	116
ZC3H14 (zinc finger CCCH-type containing 14)	1	-1.6	50.2
ZC3H14 (zinc finger CCCH-type containing 14)	2	0.122	84.3
ZC3H14 (zinc finger CCCH-type containing 14)	3	-0.786	66.3

Records listed above called active, once more:
target gene	siRNA no.	total luciferase, z-score	total luciferase, % of control
IL26 (interleukin 26)	1	4.46 (active)	171
